In doi:10.1101/814285:
Results are given in words; binding and its absence hold for the method and conditions named. Binding seen in cells or lysates may run through a third protein. Where a sequence is shown, tags or fusion partners need not be part of it.

The chains behind the UniProt entries cited, without tags or fusion partners.
UniProt P04406: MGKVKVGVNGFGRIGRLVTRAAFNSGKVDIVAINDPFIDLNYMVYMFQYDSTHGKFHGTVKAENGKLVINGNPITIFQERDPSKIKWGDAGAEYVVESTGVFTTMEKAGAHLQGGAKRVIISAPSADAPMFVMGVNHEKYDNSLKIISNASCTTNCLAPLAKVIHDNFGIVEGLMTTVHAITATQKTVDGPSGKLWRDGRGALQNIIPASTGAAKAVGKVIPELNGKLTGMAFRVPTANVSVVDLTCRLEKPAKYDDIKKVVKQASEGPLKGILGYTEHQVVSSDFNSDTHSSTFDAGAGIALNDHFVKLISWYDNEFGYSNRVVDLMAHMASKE

Target: T1, FLAG-UBR7 (wild-type human UBR7 with FLAG tag) (human) (UniProt Q8N806)
T1 sequence: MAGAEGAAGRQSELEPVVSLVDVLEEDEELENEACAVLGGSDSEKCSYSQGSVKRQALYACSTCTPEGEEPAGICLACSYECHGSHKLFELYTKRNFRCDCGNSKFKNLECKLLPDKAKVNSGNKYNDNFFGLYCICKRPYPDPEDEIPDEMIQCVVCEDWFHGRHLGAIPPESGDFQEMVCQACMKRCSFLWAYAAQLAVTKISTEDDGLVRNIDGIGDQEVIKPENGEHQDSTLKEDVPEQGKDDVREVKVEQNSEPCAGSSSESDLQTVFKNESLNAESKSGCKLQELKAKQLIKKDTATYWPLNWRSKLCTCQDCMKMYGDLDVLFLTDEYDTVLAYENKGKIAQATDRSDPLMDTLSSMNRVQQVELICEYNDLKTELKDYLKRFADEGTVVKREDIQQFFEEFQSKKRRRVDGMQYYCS
Assay: co-IP

binding: no binding
Substance: GAPDH (from UniProt P04406 1-335)
